Assay results: PubChem BioAssay AID2685 (National Center for Advancing Translational Sciences (NCATS), 2010)
Among all 320,000 compounds or so, about 2,100 (0.66%) were called active. The inconclusive results got no clear call from the source; some entries with a clear call stand among them for comparison. The call rests on the fitted dose curve; in most records, active means well fitted inhibition curve with a large enough effect in the signal ratio, with a control signal flat (not every such curve was filed as active); inconclusive means small, poorly fitted or top-dose-only effect, or effect the other way, or a change in a side signal; inactive means flat fitted curve, though single readings scatter; the % refers to the signal ratio. Potencies beside an inconclusive call are fits to weak or partial responses and may not hold up.

Test: qHTS Assay for Lipid Storage Modulators in Drosophila S3 Cells
Conditions: BODIPY lipid droplet fluorescence, 18-24 h, cells fed with added oleic acid; lipid storage change, negative = inhibition: at 46.1 µM (top of the series) unless noted
Summary of the method: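 Drosophila S3 cells loaded with oleic acid (400 uM, as added) and compounds at several concentrations; lipid droplets imaged by 488-nm laser-scanning cytometry, 500–530 nm intensity and object ratio to cell channel. Percent activity normalized to 20 uM Triacsin C.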
On the % scale 0 is the no-effect control and ±100 the full control effect; potency means the concentration at half of the fitted maximal effect.

Structure (SMILES) | lipid storage change, negative = inhibition | Potency | outcome
COc1cc(CNc2ccccc2SC)cc(OC)c1OC | inconclusive: 11.7% | – | –
COc1cccc(NC(=O)c2cc(=O)c3ccccc3o2)c1 | – | inconclusive: 6.51 µM [falling, single point] | –
O=C(C1=C(O)C(=O)N(CCc2ccccc2)C1c1cccnc1)c1ccco1 (stereo unspecified) | inconclusive: -4.29% | – | –
N#Cc1nc(Nc2cc(F)cc(F)c2)c2ncn(CC(F)F)c2n1 | inconclusive: -83.2% | – | –
O=C(/C=C/c1ccc([N+](=O)[O-])cc1)NC1CC2CCC1C2 (stereo unspecified) | – | inconclusive: 29.1 µM [activator, single point] | –
Cc1cc(C)c(S(=O)(=O)c2ccccc2)c(OC(=O)c2ccc(Cl)cc2Cl)n1 | inconclusive: 28.8% | – | –
O=S(=O)(NC1CCCCC1N1CCN(c2ccc(F)cc2)CC1)c1ccc(Cl)cc1 (stereo unspecified) | inconclusive: 77.4% | – | –
COC(=O)c1ccccc1NC(=O)C1CCN(c2ncnc3c2nc2n3CCCCC2)CC1 | – | inconclusive: 0.58 µM [activator, single point] | –
Cc1cc(C)c(C(=O)Cn2nc(C)c([N+](=O)[O-])c2C)cc1C | – | inconclusive: 6.51 µM [activator, partial curve, poor fit] | –
COc1ccc(Br)c(C(=O)Nc2cccc(Cl)c2Cl)c1 | inconclusive: -13.5% | – | –
O=C(CSc1nnnn1Cc1ccccc1)Nc1ccc2c(c1)OCCO2 | inconclusive: 2.67% | – | –
CC1CC(C)CN(S(=O)(=O)N2CCCC(C(=O)NCCc3ccccc3)C2)C1 (stereo unspecified) | inconclusive: 4.56% | – | –
O=S(=O)(/N=C(/Nc1ccccc1F)c1ccccc1)c1ccccc1 | – | – | inactive [at 46.1 µM]
CCc1cc(C)cc(OCCOc2ccccc2/C=N/NC(C)=O)c1 | inconclusive: 31.1% | – | –
O=C(CCN1C(=O)[C@H]2CC=CC[C@H]2C1=O)NCc1nc(-c2ccc(Cl)cc2)no1 | inconclusive: 29% | – | –
CC(=O)Nc1ccc2nc(-c3cccs3)[nH]c2c1 | inconclusive: 32.2% | – | –
O=C(Nc1nncs1)c1ccc(F)c(S(=O)(=O)N2CCCCC2)c1 | – | inconclusive: 16.4 µM [falling, single point] | –
COCCN(CC1CCCN(C2Cc3ccccc3C2)C1)C(=O)c1ccc(C(C)=O)cc1 (stereo unspecified) | inconclusive: -121% | – | –
O=C(CSc1nnc(NC(=O)c2ccc(S(=O)(=O)N3CCOCC3)cc2)s1)Nc1ccccc1C(F)(F)F | – | inconclusive: 20.6 µM [activator, single point] | –
C=CCN1C(=O)NC2(CCCCC2)C1=O | – | inconclusive: 18.4 µM [falling, single point] | –
O=C(O)c1ccc(N2CCN(Cc3ccc4c(c3)OCO4)CC2)c([N+](=O)[O-])c1 | inconclusive: 10.4% | – | –

Arranged by number of heavy atoms (ascending): some entries from above.
Structure (SMILES) | lipid storage change, negative = inhibition | Potency | outcome
O=C(Nc1nncs1)c1ccc(F)c(S(=O)(=O)N2CCCCC2)c1 | – | inconclusive: 16.4 µM [falling, single point] | –
O=C(CSc1nnnn1Cc1ccccc1)Nc1ccc2c(c1)OCCO2 | inconclusive: 2.67% | – | –
Cc1cc(C)c(S(=O)(=O)c2ccccc2)c(OC(=O)c2ccc(Cl)cc2Cl)n1 | inconclusive: 28.8% | – | –
